From PMC9651203
These are yes or no findings as the source states them, for the method shown. In cells and extracts the contact can be indirect. A yes stands for co-enrichment or nearness to the bait. Other partners may have been found.

B1: protein disulfide isomerase family A member 6 (protein, UniProt Q15084 20-440)
chain: LYSSSDDVIELTPSNFNREVIQSDSLWLVEFYAPWCGHCQRLTPEWKKAATALKDVVKVGAVDADKHHSLGGQYGVQGFPTIKIFGSNKNRPEDYQGGRTGEAIVDAALSALRQLVKDRLGGRSGGYSSGKQGRSDSSSKKDVIELTDDSFDKNVLDSEDVWMVEFYAPWCGHCKNLEPEWAAAASEVKEQTKGKVKLAAVDATVNQVLASRYGIRGFPTIKIFQKGESPVDYDGGRTRSDIVSRALDLFSDNAPPPELLEIINEDIAKRTCEEHQLCVVAVLPHILDTGAAGRNSYLEVLLKLADKYKKKMWGWLWTEAGAQSELETALGIGGFGYPAMAAINARKMKFALLKGSFSEQGINEFLRELSFGRGSTAPVGGGAFPTIVEREPWDGRDGELPVEDDIDLSDVELDDLGKDEL
B2: DNA ligase 3 (protein, UniProt P49916 43-1009)
chain: LLHGHPLFLRRKPVLSFQGSHLRSRATYLVFLPGLHVGLCSGPCEMAEQRFCVDYAKRGTAGCKKCKEKIVKGVCRIGKVVPNPFSESGGDMKEWYHIKCMFEKLERARATTKKIEDLTELEGWEELEDNEKEQITQHIADLSSKAAGTPKKKAVVQAKLTTTGQVTSPVKGASFVTSTNPRKFSGFSAKPNNSGEAPSSPTPKRSLSSSKCDPRHKDCLLREFRKLCAMVADNPSYNTKTQIIQDFLRKGSAGDGFHGDVYLTVKLLLPGVIKTVYNLNDKQIVKLFSRIFNCNPDDMARDLEQGDVSETIRVFFEQSKSFPPAAKSLLTIQEVDEFLLRLSKLTKEDEQQQALQDIASRCTANDLKCIIRLIKHDLKMNSGAKHVLDALDPNAYEAFKASRNLQDVVERVLHNAQEVEKEPGQRRALSVQASLMTPVQPMLAEACKSVEYAMKKCPNGMFSEIKYDGERVQVHKNGDHFSYFSRSLKPVLPHKVAHFKDYIPQAFPGGHSMILDSEVLLIDNKTGKPLPFGTLGVHKKAAFQDANVCLFVFDCIYFNDVSLMDRPLCERRKFLHDNMVEIPNRIMFSEMKRVTKALDLADMITRVIQEGLEGLVLKDVKGTYEPGKRHWLKVKKDYLNEGAMADTADLVVLGAFYGQGSKGGMMSIFLMGCYDPGSQKWCTVTKCAGGHDDATLARLQNELDMVKISKDPSKIPSWLKVNKIYYPDFIVPDPKKAAVWEITGAEFSKSEAHTADGISIRFPRCTRIRDDKDWKSATNLPQLKELYQLSKEKADFTVVAGDEGSSTTGGSSEENKGPSGSAVSRKAPSKPSASTKKAEGKLSNSNSKDGNMQTAKPSAMKVGEKLATKSSPVKVGEKRKAADETLCQTKVLLDIFTGVRLYLPPSTPDFSRLRRYFVAFDGDLVQEFDMTSATHVLGSRDKNPAAQQVSPEWIWACIRKRRLVAPC

Target: Mycoplasma fermentans DnaK-V5-His (Mycoplasma fermentans)
Experiment: affinity purification with mass spectrometry

| Binder | binding |
| --- | --- |
| B1 | binds |
| B2 | binds |
